Results are given in words; binding and its absence hold for the method and conditions named. In cells and extracts the contact can be indirect. These calls come from enrichment with a bait or labelling near it, and not all partners need be listed. Sequences can lack the tags named with a protein.
T1: GST-tagged BsFlhG (Bacillus subtilis NCIB 3610) (UniProt P40742)
T1 sequence: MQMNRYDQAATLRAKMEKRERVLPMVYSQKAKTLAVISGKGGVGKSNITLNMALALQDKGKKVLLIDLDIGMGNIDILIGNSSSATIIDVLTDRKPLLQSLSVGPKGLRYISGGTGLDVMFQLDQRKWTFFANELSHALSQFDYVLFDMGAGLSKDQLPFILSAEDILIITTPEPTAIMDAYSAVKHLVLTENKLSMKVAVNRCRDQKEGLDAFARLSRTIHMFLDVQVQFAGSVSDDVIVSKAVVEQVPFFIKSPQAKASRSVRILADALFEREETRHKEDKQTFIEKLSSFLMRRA

B1: FliY (B. subtilis, from cell lysate) (protein, UniProt P24073 1-378)
chain: MENNRLSQDEIDALLNGTGSTLDEPEIPEVDDLSEMERDAIGEIGNISFGSSATALSTLLNQKVDITTPSVTVIPRSKISDAFPEPYVAIEVNYTEGFSGSNLLVVEQSDAAIIADLMIGGDGKGADPSLGEIHLSAVQEAMNQMMGSAATSMSTVFSKKIDISPPRVELLDVTEEKGTDRIPDDEMLVKVSFNLKVGELIDSSIMQLYPLTFAKDLISSLMNSESAEEEETVQPEVTYEQPKEPVTPEPRIEPKQQQQPPKRQGTAKKAAPVQVSPVEFSAFDPNEAVQAPIHNLDMLLDIPLSITVELGRTKRSVKEILELSAGSIIELDKLAGEPVDILVNQRIVAKGEVVVIEENFGVRVTDILSQAERINNLK
B2: GpsB (B. subtilis, from cell lysate) (protein, UniProt P0CI74 1-98)
chain: MLADKVKLSAKEILEKEFKTGVRGYKQEDVDKFLDMIIKDYETFHQEIEELQQENLQLKKQLEEASKKQPVQSNTTNFDILKRLSNLEKHVFGSKLYD

Target: T1, GST-tagged BsFlhG (Bacillus subtilis NCIB 3610)
Experiment: affinity purification with mass spectrometry; purified GST-FlhG incubated with lysate of B. subtilis 3610 in the logarithmic growth phase; GST pulldown, Coomassie-stained SDS-PAGE and mass spectrometry; control: lysate without GST-tagged protein; only the target purified

| Binder | binding |
| --- | --- |
| B1 | binds |
| B2 | binds |

From PMC12327844
